From paper PMC11653702, “Targeting the SPC25/RIOK1/MYH9 Axis to Overcome Tumor Stemness and Platinum Resistance in Epithelial Ovarian Cancer” (Advanced Science, 2024)
Where two headings read alike, the source gives them in different places. No constants are given. Whether binding was seen depends on the method and setting. In cells and extracts the contact can be indirect. A yes stands for co-enrichment or nearness to the bait. Other partners may have been found.

The chains behind the UniProt entries cited, without tags or fusion partners.
UniProt Q9HBM1: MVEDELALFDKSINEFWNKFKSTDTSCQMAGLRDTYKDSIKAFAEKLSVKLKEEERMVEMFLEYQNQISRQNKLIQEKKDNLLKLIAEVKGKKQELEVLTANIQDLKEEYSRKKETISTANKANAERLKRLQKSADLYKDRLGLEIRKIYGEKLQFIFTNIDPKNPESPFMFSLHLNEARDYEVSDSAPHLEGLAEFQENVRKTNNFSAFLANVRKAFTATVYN
UniProt P35579: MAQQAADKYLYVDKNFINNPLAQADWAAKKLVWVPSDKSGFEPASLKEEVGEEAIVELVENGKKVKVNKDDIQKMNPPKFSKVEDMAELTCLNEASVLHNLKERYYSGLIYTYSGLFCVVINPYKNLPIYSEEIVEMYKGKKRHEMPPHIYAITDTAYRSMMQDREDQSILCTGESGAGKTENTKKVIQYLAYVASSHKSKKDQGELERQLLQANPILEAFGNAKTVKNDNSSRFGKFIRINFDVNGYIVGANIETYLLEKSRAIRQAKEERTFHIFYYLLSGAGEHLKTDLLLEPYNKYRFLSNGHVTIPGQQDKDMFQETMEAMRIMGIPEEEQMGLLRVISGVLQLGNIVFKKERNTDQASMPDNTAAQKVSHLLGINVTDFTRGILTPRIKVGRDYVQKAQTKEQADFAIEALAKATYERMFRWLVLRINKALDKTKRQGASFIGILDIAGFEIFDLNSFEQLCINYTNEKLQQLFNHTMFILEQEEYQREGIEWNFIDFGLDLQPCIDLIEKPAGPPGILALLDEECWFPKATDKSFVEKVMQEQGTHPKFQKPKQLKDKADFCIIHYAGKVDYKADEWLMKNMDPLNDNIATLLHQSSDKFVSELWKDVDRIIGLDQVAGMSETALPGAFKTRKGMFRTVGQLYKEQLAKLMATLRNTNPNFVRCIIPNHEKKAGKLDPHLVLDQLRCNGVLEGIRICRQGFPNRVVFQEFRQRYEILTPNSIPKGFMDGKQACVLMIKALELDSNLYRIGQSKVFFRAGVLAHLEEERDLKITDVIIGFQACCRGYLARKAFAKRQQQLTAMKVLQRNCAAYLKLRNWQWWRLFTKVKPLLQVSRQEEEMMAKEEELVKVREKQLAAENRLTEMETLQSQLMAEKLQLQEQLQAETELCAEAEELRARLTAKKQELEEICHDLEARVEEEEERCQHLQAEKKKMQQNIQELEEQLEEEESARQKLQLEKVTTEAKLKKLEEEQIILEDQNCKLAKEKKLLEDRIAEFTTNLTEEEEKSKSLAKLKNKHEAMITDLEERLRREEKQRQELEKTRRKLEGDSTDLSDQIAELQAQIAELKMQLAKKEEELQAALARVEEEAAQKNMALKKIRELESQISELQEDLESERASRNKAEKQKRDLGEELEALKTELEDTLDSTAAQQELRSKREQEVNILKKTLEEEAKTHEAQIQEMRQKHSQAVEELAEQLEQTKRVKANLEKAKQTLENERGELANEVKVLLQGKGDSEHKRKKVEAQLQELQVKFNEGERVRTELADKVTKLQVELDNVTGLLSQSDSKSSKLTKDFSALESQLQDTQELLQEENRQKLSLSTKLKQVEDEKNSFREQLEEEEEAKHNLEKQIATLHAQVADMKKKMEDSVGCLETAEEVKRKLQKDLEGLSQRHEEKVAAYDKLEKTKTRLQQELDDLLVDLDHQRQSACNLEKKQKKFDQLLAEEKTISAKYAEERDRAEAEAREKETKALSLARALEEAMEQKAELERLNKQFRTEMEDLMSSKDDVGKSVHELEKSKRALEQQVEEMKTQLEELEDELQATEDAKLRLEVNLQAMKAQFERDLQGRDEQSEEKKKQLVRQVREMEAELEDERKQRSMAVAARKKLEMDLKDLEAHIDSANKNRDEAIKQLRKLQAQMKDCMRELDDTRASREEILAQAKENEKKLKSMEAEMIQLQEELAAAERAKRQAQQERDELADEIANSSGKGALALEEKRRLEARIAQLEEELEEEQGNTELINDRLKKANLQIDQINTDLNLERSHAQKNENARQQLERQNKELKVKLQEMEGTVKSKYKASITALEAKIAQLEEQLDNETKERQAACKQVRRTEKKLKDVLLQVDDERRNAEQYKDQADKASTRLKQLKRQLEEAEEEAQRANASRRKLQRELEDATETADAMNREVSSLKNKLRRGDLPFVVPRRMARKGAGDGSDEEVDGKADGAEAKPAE

What was measured:
[1] = biological target: spindle pole body component 25 (SPC25), endogenous (human (endogenous in OVCAR8)) (UniProt Q9HBM1); test: affinity purification with mass spectrometry; Co-IP-MS with anti-SPC25 in cytoplasmic lysates of OVCAR8 cells (LC-MS)
[2] = biological target: spindle pole body component 25 (SPC25), endogenous (human (endogenous in OVCAR8)) (UniProt Q9HBM1); test: as above; remark: listed apart in the source

| binding [1] | binding [2] | Molecule |
| --- | --- | --- |
| binds | – | MYH9, also called nonmuscle myosin IIA (NMIIA), endogenous (from UniProt P35579 1-1960) |
| – | binds | RIOK1, endogenous (enzyme, UniProt Q9BRS2 1-568) MDYRRLLMSRVVPGQFDDADSSDSENRDLKTVKEKDDILFEDLQDNVNENGEGEIEDEEEEGYDDDDDDWDWDEGVGKLAKGYVWNGGSNPQANRQTSDSSSAKMSTPADKVLRKFENKINLDKLNVTDSVINKVTEKSRQKEADMYRIKDKADRATVEQVLDPRTRMILFKMLTRGIITEINGCISTGKEANVYHASTANGESRAIKIYKTSILVFKDRDKYVSGEFRFRHGYCKGNPRKMVKTWAEKEMRNLIRLNTAEIPCPEPIMLRSHVLVMSFIGKDDMPAPLLKNVQLSESKARELYLQVIQYMRRMYQDARLVHADLSEFNMLYHGGGVYIIDVSQSVEHDHPHALEFLRKDCANVNDFFMRHSVAVMTVRELFEFVTDPSITHENMDAYLSKAMEIASQRTKEERSSQDHVDEEVFKRAYIPRTLNEVKNYERDMDIIMKLKEEDMAMNAQQDNILYQTVTGLKKDLSGVQKVPALLENQVEERTCSDSEDIGSSECSDTDSEEQGDHARPKKHTTDPDIDKKERKKMVKEAQREKRKNKIPKHVKKRKEKTAKTKKGK |
